Values from PubChem BioAssay AID1259308 (NCATS, 2017)
The deposit covers about 59,000 reagents; shown is a part drawn at random. About 1,510 of all reagents (2.6%) were called active. 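Calls use total luciferase alone and ignore viability, so some active siRNAs may act by altering cell number.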 Reagents against one gene are numbered here. Not all columns of the deposit are shown.

Assay: 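Genes whose loss raises luciferase production in HEK293 cells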 (primary screen)
Cell system: human HEK293 embryonic kidney cells stably expressing firefly luciferase (HEK-CMV-Luc2-Hygro)
Knock-down reagent: single siRNA against human genes, 0.8 pmol siRNA per well
Time to read-out: 72 h
Measured: 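Reporter luminescence and viable-cell signal on separate replicate plates, given as percent of non-targeting control and median/MAD z-scores, plus per-cell luciferase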
Scale: total luciferase, z-score and total luciferase, % of control: higher = more reporter protein produced
Call rule: 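An siRNA counts as active if its total luciferase robust z-score exceeds 3; genes with two or more such siRNAs out of three were retested with fresh siRNAs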
Meaning of the calls: active = raised luciferase; inactive = no rise

TEX46 (GeneID 729059) #1
- total luciferase, z-score: -0.556
- total luciferase, % of control: 70.8
- activity call: inactive

TEX46 (GeneID 729059) #2
- total luciferase, z-score: -1.37
- total luciferase, % of control: 54.7
- activity call: inactive

TEX46 (GeneID 729059) #3
- total luciferase, z-score: -1.93
- total luciferase, % of control: 43.4
- activity call: inactive

CR1 (GeneID 1378) #1
- total luciferase, z-score: 0.649
- total luciferase, % of control: 94.8
- activity call: inactive

CR1 (GeneID 1378) #2
- total luciferase, z-score: -0.849
- total luciferase, % of control: 65
- activity call: inactive

CR1 (GeneID 1378) #3
- total luciferase, z-score: 1.23
- total luciferase, % of control: 106
- activity call: inactive

CXorf38 (GeneID 159013) #1
- total luciferase, z-score: -0.584
- total luciferase, % of control: 70.3
- activity call: inactive

CXorf38 (GeneID 159013) #2
- total luciferase, z-score: 0.552
- total luciferase, % of control: 92.9
- activity call: inactive

CXorf38 (GeneID 159013) #3
- total luciferase, z-score: 1.47
- total luciferase, % of control: 111
- activity call: inactive

ARPP19P1 (GeneID 646227) #1
- total luciferase, z-score: 1.1
- total luciferase, % of control: 104
- activity call: inactive

ARPP19P1 (GeneID 646227) #2
- total luciferase, z-score: 0.192
- total luciferase, % of control: 85.7
- activity call: inactive

ARPP19P1 (GeneID 646227) #3
- total luciferase, z-score: 0.238
- total luciferase, % of control: 86.6
- activity call: inactive

OMD (GeneID 4958) #1
- total luciferase, z-score: -1.13
- total luciferase, % of control: 59.4
- activity call: inactive

OMD (GeneID 4958) #2
- total luciferase, z-score: -2.64
- total luciferase, % of control: 29.4
- activity call: inactive

OMD (GeneID 4958) #3
- total luciferase, z-score: 0.738
- total luciferase, % of control: 96.6
- activity call: inactive

CD177 (GeneID 57126) #1
- total luciferase, z-score: 0.425
- total luciferase, % of control: 90.3
- activity call: inactive

CD177 (GeneID 57126) #2
- total luciferase, z-score: -0.196
- total luciferase, % of control: 78
- activity call: inactive

CD177 (GeneID 57126) #3
- total luciferase, z-score: 0.813
- total luciferase, % of control: 98.1
- activity call: inactive

SLC31A2 (GeneID 1318) #1
- total luciferase, z-score: -1.34
- total luciferase, % of control: 55.3
- activity call: inactive

SLC31A2 (GeneID 1318) #2
- total luciferase, z-score: 0.433
- total luciferase, % of control: 90.5
- activity call: inactive

SLC31A2 (GeneID 1318) #3
- total luciferase, z-score: 0.404
- total luciferase, % of control: 89.9
- activity call: inactive

ANTXR1 (GeneID 84168) #1
- total luciferase, z-score: -1.44
- total luciferase, % of control: 53.3
- activity call: inactive

ANTXR1 (GeneID 84168) #2
- total luciferase, z-score: -0.557
- total luciferase, % of control: 70.8
- activity call: inactive

ANTXR1 (GeneID 84168) #3
- total luciferase, z-score: -0.227
- total luciferase, % of control: 77.4
- activity call: inactive

FKBP11 (GeneID 51303) #1
- total luciferase, z-score: -1.61
- total luciferase, % of control: 49.8
- activity call: inactive

FKBP11 (GeneID 51303) #2
- total luciferase, z-score: -0.119
- total luciferase, % of control: 79.5
- activity call: inactive

FKBP11 (GeneID 51303) #3
- total luciferase, z-score: 0.589
- total luciferase, % of control: 93.6
- activity call: inactive

PLCL2 (GeneID 23228) #1
- total luciferase, z-score: -0.21
- total luciferase, % of control: 77.7
- activity call: inactive

PLCL2 (GeneID 23228) #2
- total luciferase, z-score: -0.0179
- total luciferase, % of control: 81.5
- activity call: inactive

PLCL2 (GeneID 23228) #3
- total luciferase, z-score: -2.1
- total luciferase, % of control: 40.1
- activity call: inactive

RAX2 (GeneID 84839) #1
- total luciferase, z-score: -0.369
- total luciferase, % of control: 74.6
- activity call: inactive

RAX2 (GeneID 84839) #2
- total luciferase, z-score: -0.32
- total luciferase, % of control: 75.5
- activity call: inactive

RAX2 (GeneID 84839) #3
- total luciferase, z-score: 0.779
- total luciferase, % of control: 97.4
- activity call: inactive

TCERG1 (GeneID 10915) #1
- total luciferase, z-score: 2.2
- total luciferase, % of control: 126
- activity call: inactive

TCERG1 (GeneID 10915) #2
- total luciferase, z-score: 2.67
- total luciferase, % of control: 135
- activity call: inactive

TCERG1 (GeneID 10915) #3
- total luciferase, z-score: 3.08
- total luciferase, % of control: 143
- activity call: active

PMM2 (GeneID 5373) #1
- total luciferase, z-score: 0.107
- total luciferase, % of control: 84
- activity call: inactive

PMM2 (GeneID 5373) #2
- total luciferase, z-score: -0.39
- total luciferase, % of control: 74.1
- activity call: inactive

PMM2 (GeneID 5373) #3
- total luciferase, z-score: 0.967
- total luciferase, % of control: 101
- activity call: inactive

KCNAB3 (GeneID 9196) #1
- total luciferase, z-score: 0.65
- total luciferase, % of control: 94.8
- activity call: inactive

KCNAB3 (GeneID 9196) #2
- total luciferase, z-score: -2.36
- total luciferase, % of control: 34.9
- activity call: inactive

KCNAB3 (GeneID 9196) #3
- total luciferase, z-score: 0.876
- total luciferase, % of control: 99.3
- activity call: inactive

Part of the list above, set out differently:
{"target gene": "ANTXR1 (GeneID 84168)", "reagent": 3, "total luciferase, z-score": -0.227, "total luciferase, % of control": 77.4, "activity call": "inactive"}
{"target gene": "FKBP11 (GeneID 51303)", "reagent": 1, "total luciferase, z-score": -1.61, "total luciferase, % of control": 49.8, "activity call": "inactive"}
{"target gene": "FKBP11 (GeneID 51303)", "reagent": 2, "total luciferase, z-score": -0.119, "total luciferase, % of control": 79.5, "activity call": "inactive"}
{"target gene": "FKBP11 (GeneID 51303)", "reagent": 3, "total luciferase, z-score": 0.589, "total luciferase, % of control": 93.6, "activity call": "inactive"}
{"target gene": "PLCL2 (GeneID 23228)", "reagent": 1, "total luciferase, z-score": -0.21, "total luciferase, % of control": 77.7, "activity call": "inactive"}
{"target gene": "PLCL2 (GeneID 23228)", "reagent": 2, "total luciferase, z-score": -0.0179, "total luciferase, % of control": 81.5, "activity call": "inactive"}
